Assay results: US20160237157A1
Results are given in words; binding and its absence hold for the method and conditions named. Some results given as binding are weak or reduced against the parent protein; the word gives no strength.

The chains behind the UniProt entries cited, without tags or fusion partners. Where a name states a change or a piece, a line headed by the entry shows the natural chain unless it says otherwise.
UniProt P01027: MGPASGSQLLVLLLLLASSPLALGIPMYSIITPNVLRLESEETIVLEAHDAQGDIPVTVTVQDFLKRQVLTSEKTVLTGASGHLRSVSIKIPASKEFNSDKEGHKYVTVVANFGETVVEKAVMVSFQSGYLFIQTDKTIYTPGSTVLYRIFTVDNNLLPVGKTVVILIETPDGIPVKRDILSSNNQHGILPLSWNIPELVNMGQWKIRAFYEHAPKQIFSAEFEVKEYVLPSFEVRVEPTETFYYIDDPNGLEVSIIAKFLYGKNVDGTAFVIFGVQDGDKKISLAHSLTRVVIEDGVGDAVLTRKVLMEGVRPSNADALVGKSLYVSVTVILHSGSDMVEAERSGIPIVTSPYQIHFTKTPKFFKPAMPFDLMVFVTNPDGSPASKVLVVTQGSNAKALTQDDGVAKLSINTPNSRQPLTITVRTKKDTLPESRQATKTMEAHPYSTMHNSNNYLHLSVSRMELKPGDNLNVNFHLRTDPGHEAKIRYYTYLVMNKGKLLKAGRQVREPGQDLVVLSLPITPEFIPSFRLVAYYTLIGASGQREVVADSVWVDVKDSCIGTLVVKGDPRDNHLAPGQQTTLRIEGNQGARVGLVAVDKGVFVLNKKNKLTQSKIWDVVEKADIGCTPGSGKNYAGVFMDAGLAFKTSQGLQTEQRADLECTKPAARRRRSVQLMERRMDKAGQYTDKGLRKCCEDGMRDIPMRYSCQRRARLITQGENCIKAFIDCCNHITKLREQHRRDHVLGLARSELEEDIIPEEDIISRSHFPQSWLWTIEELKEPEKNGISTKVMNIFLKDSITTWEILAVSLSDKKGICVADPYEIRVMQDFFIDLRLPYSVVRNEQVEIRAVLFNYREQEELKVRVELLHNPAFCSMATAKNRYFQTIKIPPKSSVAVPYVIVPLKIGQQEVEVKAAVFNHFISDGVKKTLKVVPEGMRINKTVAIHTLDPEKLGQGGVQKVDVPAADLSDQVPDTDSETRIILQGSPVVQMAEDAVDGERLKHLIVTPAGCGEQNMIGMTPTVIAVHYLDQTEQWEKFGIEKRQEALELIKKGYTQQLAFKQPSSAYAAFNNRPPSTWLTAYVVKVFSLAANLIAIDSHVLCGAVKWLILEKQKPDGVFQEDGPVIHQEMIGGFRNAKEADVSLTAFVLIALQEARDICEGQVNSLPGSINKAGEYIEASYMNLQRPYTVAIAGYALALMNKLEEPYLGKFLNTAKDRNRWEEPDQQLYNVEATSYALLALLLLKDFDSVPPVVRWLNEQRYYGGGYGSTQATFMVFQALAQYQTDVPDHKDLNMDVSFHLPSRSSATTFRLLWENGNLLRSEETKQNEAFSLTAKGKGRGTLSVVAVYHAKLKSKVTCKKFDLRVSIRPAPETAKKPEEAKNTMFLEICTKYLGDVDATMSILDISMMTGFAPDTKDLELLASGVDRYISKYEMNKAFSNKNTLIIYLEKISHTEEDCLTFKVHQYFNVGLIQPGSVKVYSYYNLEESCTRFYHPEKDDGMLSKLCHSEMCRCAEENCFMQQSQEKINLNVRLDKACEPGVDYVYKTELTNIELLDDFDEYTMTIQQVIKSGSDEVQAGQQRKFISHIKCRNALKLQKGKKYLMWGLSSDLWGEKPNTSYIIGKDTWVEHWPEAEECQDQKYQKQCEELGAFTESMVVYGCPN

How the values were obtained:
[1] = biological target: T1, human FGFR4 (soluble, Part B: SPR and FGFR4 ELISA) (human) (UniProt P22455); assay: surface plasmon resonance
T1 sequence: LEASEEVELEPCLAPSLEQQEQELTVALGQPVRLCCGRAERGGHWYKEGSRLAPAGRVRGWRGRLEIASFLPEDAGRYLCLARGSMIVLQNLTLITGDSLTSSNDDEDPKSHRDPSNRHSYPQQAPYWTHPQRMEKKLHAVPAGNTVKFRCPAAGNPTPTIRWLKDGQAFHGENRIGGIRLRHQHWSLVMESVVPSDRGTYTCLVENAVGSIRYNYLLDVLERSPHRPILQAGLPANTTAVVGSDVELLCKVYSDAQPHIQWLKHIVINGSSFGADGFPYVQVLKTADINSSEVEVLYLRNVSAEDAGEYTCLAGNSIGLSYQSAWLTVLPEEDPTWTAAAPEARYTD

[2] = biological target: mouse complement C3 (C3d fragment, ca. 37 kDa) (mouse) (UniProt P01027); assay: Protein-G pull-down from serum of dosed mice (2 h post dose), SDS-PAGE
[3] = biological target: mouse complement C3 (C3d fragment, ca. 37 kDa) (mouse) (UniProt P01027); assay: immunoprecipitation from mouse plasma, SDS-PAGE
[4] = biological target: T1, human FGFR4 (soluble, Part B: SPR and FGFR4 ELISA) (human); assay: FGFR4 ELISA, FGFR4 immobilized
[5] = biological target: mouse complement C3 (C3d fragment, ca. 37 kDa) (mouse) (UniProt P01027); assay: immunoprecipitation from mouse plasma, Protein-G beads, SDS-PAGE, MS/MS identification as mouse C3
[6] = biological target: mouse complement C3 (C3d fragment, ca. 37 kDa) (mouse) (UniProt P01027); assay: immunoprecipitation from mouse plasma
[7] = biological target: mouse complement C3 (C3d fragment, ca. 37 kDa) (mouse) (UniProt P01027); assay: immunoprecipitation from NCR nude mouse plasma, SDS-PAGE

Measured: binding

B1: hLD1.vB (antibody, V domains shown)
VH: EVQLVESGGGLVQPGGSLRLSCAASGYTFTNHWMNWVRQAPGKGLEWVGMIHPSDSETTLDQKFKDRFTISADTSKNTAYLQMNSLRAEDTAVYYCTRGDISLFDYWGQGTLVTVSS
VL: DIQMTQSPSSLSASVGDRVTITCRTSQDISNFLNWYQQKPGKAFKILISYTSRLHSGVPSRFSGSGSGTDFTLTISSLQPEDFATYYCQQGNALPYTFGQGTKVEIK
binds: [1] | [2] | [3] | [4] | [5] | [6] | [7]

B2: hLD1.v22 (antibody, V domains shown)
VH: EVQLVESGGGLVQPGGSLRLSCAASGYTFTNHWMNWVRQAPGKGLEWVGMILPVDSETTLEQKFKDRFTISADTSKNTAYLQMNSLRAEDTAVYYCTRGDISLFDYWGQGTLVTVSS
VL: DIQMTQSPSSLSASVGDRVTITCRTSQDISNFLNWYQQKPGKAFKILISYTSRLHSGVPSRFSGSGSGTDFTLTISSLQPEDFATYYCQQGNALPYTFGQGTKVEIKR
binds: [1]
